Test results: PMC7936609
These are yes or no findings as the source states them, for the method shown. In cells and extracts the contact can be indirect. Binding can be weak; no strength is given.

Sequences of proteins named here, by UniProt entry; tags and fusion partners are left off.
UniProt P68559: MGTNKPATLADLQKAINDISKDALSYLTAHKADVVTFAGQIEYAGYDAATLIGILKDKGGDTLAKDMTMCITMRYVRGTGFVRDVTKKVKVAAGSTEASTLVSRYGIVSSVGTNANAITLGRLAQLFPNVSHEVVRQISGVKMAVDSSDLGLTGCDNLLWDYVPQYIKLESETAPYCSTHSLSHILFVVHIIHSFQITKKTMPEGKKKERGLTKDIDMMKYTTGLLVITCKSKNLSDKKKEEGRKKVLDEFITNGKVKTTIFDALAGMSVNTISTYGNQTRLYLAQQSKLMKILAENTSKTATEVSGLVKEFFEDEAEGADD

Assays:
[1] = target: importin α3 of the small brown planthopper, recombinantly expressed with a His-tag (small brown planthopper Laodelphax striatellus); assay: co-IP; protein G beads with anti-His monoclonal antibody and His-tagged recombinant protein (E. coli supernatant), then total proteins from 4th-instar viruliferous planthoppers (PBS pH 7.2) at 4 °C overnight; Western blot; pET28a expression products as negative control
[2] = target: importin α1 of the small brown planthopper, recombinantly expressed with a His-tag (small brown planthopper Laodelphax striatellus); assay: as above
[3] = target: importin α2 of the small brown planthopper, recombinantly expressed with a His-tag (small brown planthopper Laodelphax striatellus); assay: as above
[4] = target: importin α3 of the small brown planthopper, recombinantly expressed with a His-tag (small brown planthopper Laodelphax striatellus); assay: co-IP; in vitro: protein G beads with anti-His or anti-Flag monoclonal antibody, incubated with 200 μL of His- or Flag-tagged recombinant protein (E. coli supernatant) 15 min at room temperature, then 500 μL of recombinant Flag- or His-tagged target protein at 4 °C overnight; Western blot; pET28a expression products as negative control
[5] = target: importin α1 of the small brown planthopper, recombinantly expressed with a His-tag (small brown planthopper Laodelphax striatellus); assay: as above
[6] = target: importin α2 of the small brown planthopper, recombinantly expressed with a His-tag (small brown planthopper Laodelphax striatellus); assay: as above

Measured: binding

Rice stripe virus nucleocapsid protein (NP) from viruliferous planthoppers (from UniProt P68559 1-322)
binds: [1] | [2] | [3]

Rice stripe virus nucleocapsid protein (NP), recombinantly expressed with a Flag-tag (from UniProt P68559 1-322)
binds: [4] | [5] | [6]
